According to publication PMC11421793:
No constants are given. Whether binding was seen depends on the method and setting. In cells and extracts the contact can be indirect. Binding calls can cover weak binding; strength is not graded here.

Key:
[1] = molecular target: T1, IMC6^2-290-3xHA F205* (Azi at 205) (Toxoplasma gondii) (UniProt S8F8Q1); test: cross-linking; Azi photocrosslinking (365 nm, 20 min, on ice) in parasites; whole cell lysates, anti-HA western blot; size of the crosslinked product compared between strains with untagged and smMyc-tagged candidate partner
T1 sequence (chain, p-azidophenylalanine (Azi) at 205 (amber stop codon)): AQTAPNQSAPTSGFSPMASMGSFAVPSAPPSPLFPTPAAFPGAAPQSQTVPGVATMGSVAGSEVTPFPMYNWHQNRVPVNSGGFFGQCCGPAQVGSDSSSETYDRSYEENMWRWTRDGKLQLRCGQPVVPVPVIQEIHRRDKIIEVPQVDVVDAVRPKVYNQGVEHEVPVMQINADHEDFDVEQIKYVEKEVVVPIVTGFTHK

[2] = molecular target: T2, IMC6^2-290-3xHA H203* (Azi at 203) (Toxoplasma gondii) (UniProt S8F8Q1); test: as above
T2 sequence (chain, p-azidophenylalanine (Azi) at 203 (amber stop codon)): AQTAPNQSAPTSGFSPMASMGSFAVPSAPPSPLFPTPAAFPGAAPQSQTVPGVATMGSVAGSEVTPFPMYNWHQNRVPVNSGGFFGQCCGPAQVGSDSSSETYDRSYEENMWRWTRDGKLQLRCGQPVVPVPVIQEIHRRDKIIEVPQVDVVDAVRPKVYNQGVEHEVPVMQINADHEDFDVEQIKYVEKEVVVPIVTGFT

[3] = molecular target: T3, IMC6^2-290-3xHA Q185* (Azi at 185) (Toxoplasma gondii) (UniProt S8F8Q1); test: as above
T3 sequence (chain, p-azidophenylalanine (Azi) at 185 (amber stop codon)): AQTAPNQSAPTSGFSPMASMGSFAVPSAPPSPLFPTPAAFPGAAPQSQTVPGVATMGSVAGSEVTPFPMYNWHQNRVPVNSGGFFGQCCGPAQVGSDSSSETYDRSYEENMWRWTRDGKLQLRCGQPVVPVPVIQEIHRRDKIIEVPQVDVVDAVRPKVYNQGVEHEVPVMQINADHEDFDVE

[4] = molecular target: T4, IMC6^2-290-3xHA N162* (Azi at 162) (Toxoplasma gondii) (UniProt S8F8Q1); test: cross-linking + co-IP; Azi photocrosslinking (365 nm, 20 min, on ice) in parasites; lysate boiled in 1% SDS, diluted 10-fold to RIPA conditions; IP with anti-HA agarose overnight at 4°C; blots with anti-HA and anti-IMC3
T4 sequence (chain, p-azidophenylalanine (Azi) at 162 (amber stop codon)): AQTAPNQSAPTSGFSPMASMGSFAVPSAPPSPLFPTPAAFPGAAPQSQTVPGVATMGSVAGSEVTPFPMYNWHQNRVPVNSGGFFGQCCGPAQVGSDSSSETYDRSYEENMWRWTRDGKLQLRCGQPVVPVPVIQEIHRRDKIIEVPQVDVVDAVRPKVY

[5] = molecular target: T5, IMC6^2-290-3xHA K277* (Azi at 277) (Toxoplasma gondii) (UniProt S8F8Q1); test: cross-linking; Azi photocrosslinking (365 nm, 20 min, on ice) in parasites; whole cell lysates, anti-HA western blot; size of the crosslinked product compared between strains with untagged and smMyc-tagged candidate partner
T5 sequence (chain, p-azidophenylalanine (Azi) at 277 (amber stop codon)): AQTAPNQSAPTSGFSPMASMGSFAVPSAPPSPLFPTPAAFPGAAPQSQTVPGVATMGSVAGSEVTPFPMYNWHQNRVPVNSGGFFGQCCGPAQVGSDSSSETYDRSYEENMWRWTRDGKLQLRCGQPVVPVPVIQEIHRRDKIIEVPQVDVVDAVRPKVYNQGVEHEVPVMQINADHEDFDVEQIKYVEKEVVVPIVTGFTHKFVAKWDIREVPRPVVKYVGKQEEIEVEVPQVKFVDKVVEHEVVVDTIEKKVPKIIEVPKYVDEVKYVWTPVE

[6] = molecular target: T4, IMC6^2-290-3xHA N162* (Azi at 162) (Toxoplasma gondii); test: as above
[7] = molecular target: T6, IMC6^2-290-3xHA E245* (Azi at 245) (Toxoplasma gondii) (UniProt S8F8Q1); test: as above
T6 sequence (chain, p-azidophenylalanine (Azi) at 245 (amber stop codon)): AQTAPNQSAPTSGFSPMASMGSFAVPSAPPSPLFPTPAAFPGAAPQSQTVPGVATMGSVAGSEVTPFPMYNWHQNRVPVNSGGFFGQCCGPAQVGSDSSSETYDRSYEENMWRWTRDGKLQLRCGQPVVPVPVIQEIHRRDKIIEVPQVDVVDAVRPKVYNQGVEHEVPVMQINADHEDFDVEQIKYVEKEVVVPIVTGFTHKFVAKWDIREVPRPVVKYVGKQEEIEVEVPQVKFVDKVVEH

[8] = molecular target: T7, IMC6^2-290-3xHA E243* (Azi at 243) (Toxoplasma gondii) (UniProt S8F8Q1); test: as above
T7 sequence (chain, p-azidophenylalanine (Azi) at 243 (amber stop codon)): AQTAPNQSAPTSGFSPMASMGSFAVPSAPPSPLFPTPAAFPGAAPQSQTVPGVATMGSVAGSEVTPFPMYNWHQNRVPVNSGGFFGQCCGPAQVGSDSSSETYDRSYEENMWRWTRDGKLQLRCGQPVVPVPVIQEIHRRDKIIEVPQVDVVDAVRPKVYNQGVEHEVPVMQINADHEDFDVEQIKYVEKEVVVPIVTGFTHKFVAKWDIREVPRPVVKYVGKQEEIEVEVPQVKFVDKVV

[9] = molecular target: T8, IMC6^2-290-3xHA E229* (Azi at 229) (Toxoplasma gondii) (UniProt S8F8Q1); test: as above
T8 sequence (chain, p-azidophenylalanine (Azi) at 229 (amber stop codon)): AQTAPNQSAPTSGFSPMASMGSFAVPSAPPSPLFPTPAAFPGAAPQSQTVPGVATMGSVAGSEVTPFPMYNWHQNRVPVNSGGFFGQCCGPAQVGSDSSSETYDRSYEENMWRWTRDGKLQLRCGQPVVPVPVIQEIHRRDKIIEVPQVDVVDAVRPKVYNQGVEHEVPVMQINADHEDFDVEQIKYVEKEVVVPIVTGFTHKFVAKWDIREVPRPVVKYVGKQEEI

[10] = molecular target: T9, IMC6^2-290-3xHA Y221* (Azi at 221) (Toxoplasma gondii) (UniProt S8F8Q1); test: as above
T9 sequence (chain, p-azidophenylalanine (Azi) at 221 (amber stop codon)): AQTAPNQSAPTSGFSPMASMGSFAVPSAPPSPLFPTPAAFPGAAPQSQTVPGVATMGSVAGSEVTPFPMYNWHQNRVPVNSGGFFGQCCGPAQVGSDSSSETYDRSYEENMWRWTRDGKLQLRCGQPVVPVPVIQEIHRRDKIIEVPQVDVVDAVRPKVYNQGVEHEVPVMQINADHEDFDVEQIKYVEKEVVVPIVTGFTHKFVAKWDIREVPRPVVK

Measured: binding

ILP1-smMyc
binds: [1] | [2] | [3]

IMC3 (from UniProt S8FA55)
binds: [4]

IMC3-smMyc (from UniProt S8FA55)
binds: [5] | [6] | [7] | [8] | [9] | [10]
